# The supplement of paper PMC9135407
# Several values for one entry are separate records, joined by “and”; a condition that tells them apart may be missing. Equal values may be shown once. Where a name gives a salt, the structure may show the parent alone. ± gives the standard deviation of the averaged measurements. Some of the results follow. Part of the spread comes from offsets between plates or batches.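 Primary human stellate myofibroblasts activated in culture; inactivation shown by regained lipid droplets. Readout: fraction of Hoechst-counted cells exceeding a per-plate Bodipy threshold, duplicate wells, each plate with DMSO negative and nortriptyline positive controls. Hits: control-normalized score beyond the plate's top-tenth-percentile nortriptyline wells, or among its three best wells. Final well concentrations unstated.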
# System: primary human hepatic stellate cells (donor 1)
# Assay: percent Bodipy-positive cells; higher = more lipid droplet accumulation
# Conditions: 48 h
# [1] = library stock concentration: 10 mM
# [2] = library stock concentration: 1 mM
# [3] = library stock concentration: 2 mM
# [4] = library stock concentration: 3.33 mM
# [5] = library stock concentration: 4.8 mM
# [6] = library stock concentration: 7.5 mM
compound,measurement,setting,value
Nc1ccc(-c2ccc3ccccc3n2)cc1 [BF-170 hydrochloride],percent Bodipy-positive cells,[1],32.6 ± 2.4%
OC1C[C@@H]2[C@@H](CC[C@@H](O)CCc3ccccc3)[C@H](O)C[C@@H]2O1 (some centres undefined) [Latanoprost Lactol],percent Bodipy-positive cells,[2],13.5 ± 3%
CS(=O)(=O)CCNCc1ccc(-c2ccc3ncnc(Nc4ccc(OCc5cccc(F)c5)c(Cl)c4)c3c2)o1,percent Bodipy-positive cells,[3],96.54 ± 0.54%
CCCCOC(=O)c1ccc(N)cc1 [Butamben],percent Bodipy-positive cells,,11.2 ± 0.17%
same,percent Bodipy-positive cells,[1],25 ± 3.8%
CCCCC[C@H](O)/C=C/[C@H]1C=CC(=O)[C@@H]1CCCCCCC(=O)O [Prostaglandin A1],percent Bodipy-positive cells,[2],10.4% and 6.21%
O=C(Nc1ccc(C(=O)O)c(O)c1)c1ccccc1 [Benzoylpas],percent Bodipy-positive cells,library stock concentration: 7.8 mM,19.4 ± 5.4%
Cc1ccc(S(=O)(=O)n2c(N)nc3ccccc32)cc1 [ML130 (Nodinitib-1)],percent Bodipy-positive cells,[4],6.35 ± 1.4%
same,percent Bodipy-positive cells,[1],9.67 ± 4.6%
"Cn1c(=O)c2[nH]c(C3CCCC3)nc2n(C)c1=O [8-Cyclopentyl-1,3-dimethylxanthine]",percent Bodipy-positive cells,[1],55.8 ± 5.6%
CC(C)COCC(CN(Cc1ccccc1)c1ccccc1)N1CCCC1 (centres undefined) [Bepridil hydrochloride],percent Bodipy-positive cells,,83 ± 11%
same,percent Bodipy-positive cells,library stock concentration: 5 mM,84.9 ± 4%
same,percent Bodipy-positive cells,[1],52.3% and 61%
C=NC(C(=O)NC1C(=O)N2C1SC(C)(C)C2C(=O)O)c1ccccc1 (centres undefined) [Metampicillin sodium],percent Bodipy-positive cells,[1],20.7 ± 0.25%
NC(=O)c1ncn([C@@H]2O[C@H](CO)[C@@H](O)[C@H]2O)n1 [Ribavirin],percent Bodipy-positive cells,,10.9 ± 3.2%
same,percent Bodipy-positive cells,[4],10.1 ± 7.4%
CCC(CC)(CC(=O)Nc1cccc(/C=C/c2nc(C3CCC3)cs2)c1)C(=O)O [Cinalukast],percent Bodipy-positive cells,[1],6.25 ± 1.1%
CCOc1ccc2c(c1)C(C)=CC(C)(C)N2 [Ethoxyquin],percent Bodipy-positive cells,,13.9 ± 1.4%
same,percent Bodipy-positive cells,[1],36.7 ± 13%
CCCCCCCCCCCCCCCCNc1ccc(C(=O)O)cc1 [Cetaben],percent Bodipy-positive cells,[2],5.84 ± 1.9%
O=C(NCc1ccncc1)C12CC3CC(C1)CC(c1ccc(Cl)cc1)(C3)C2,percent Bodipy-positive cells,library stock concentration: 13.1 mM,46.7 ± 6%
CCOC(=O)[C@H](CCc1ccccc1)N[C@@H](C)C(=O)N1[C@H](C(=O)O)C[C@@H]2CCC[C@@H]21,percent Bodipy-positive cells,[1],9.52% and 33.6%
CCOC(=O)[C@H](CCc1ccccc1)N[C@@H](C)C(=O)N1[C@H](C(=O)O)C[C@@H]2CCC[C@@H]21 [Ramipril],percent Bodipy-positive cells,,8.39 ± 2.1%
same,percent Bodipy-positive cells,[4],21.2 ± 2.6%
same,percent Bodipy-positive cells,[5],8.37% and 11.5%
same,percent Bodipy-positive cells,[1],15.2 ± 0.77%
COc1ccc(-c2cnc3c(-c4cccc5ncccc45)cnn3c2)cc1,percent Bodipy-positive cells,[4],65.1 ± 8.6%
same,percent Bodipy-positive cells,[1],72.5 ± 17%
NS(=O)(=O)c1cc2c(cc1Cl)N=CNS2(=O)=O [Chlorothiazide],percent Bodipy-positive cells,,30.2 ± 12%
same,percent Bodipy-positive cells,[4],8.14 ± 1.5%
same,percent Bodipy-positive cells,library stock concentration: 6.8 mM,2.71 ± 0.8%
CNS(=O)(=O)Cc1ccc2[nH]cc(CCN(C)C)c2c1 [Sumatriptan succinate],percent Bodipy-positive cells,[1],11.2 ± 0.31%
CNS(=O)(=O)Cc1ccc2[nH]cc(CCN(C)C)c2c1 [Sumatriptan Succinate],percent Bodipy-positive cells,[5],4.76 ± 0.48%
CNS(=O)(=O)Cc1ccc2[nH]cc(CCN(C)C)c2c1,percent Bodipy-positive cells,[1],10.8 ± 5%
O=c1c(O)c(-c2ccc(O)c(O)c2)oc2cc(O)ccc12 [Fisetin],percent Bodipy-positive cells,[4],10.6 ± 2.5%
same,percent Bodipy-positive cells,[1],16.9 ± 2.1%
COc1cc2ncnc(Oc3cccc(NC(=O)Nc4cc(C(C)(C)C(F)(F)F)on4)c3)c2cc1OC,percent Bodipy-positive cells,[4],28.4 ± 3.4%
same,percent Bodipy-positive cells,[1],40.2 ± 14%
CCCCCCCCCCCCCCCCCCCCCCC(=O)OCC [Ethyl Tricosanoate],percent Bodipy-positive cells,[2],7.57 ± 2.2%
CN[C@H](CC(C)C)C(=O)N[C@H]1C(=O)N[C@@H](CC(N)=O)C(=O)N[C@H]2C(=O)N[C@H]3C(=O)N[C@H](C(=O)N[C@H](C(=O)O)c4cc(O)cc(O)c4-c4cc3ccc4O)[C@H](O)c3ccc(c(Cl)c3)Oc3cc2cc(c3O[C@@H]2O[C@H](CO)[C@@H](O)[C@H](O)[C@H]2O[C@H]2C[C@](C)(N)[C@H](O)[C@H](C)O2)Oc2ccc(cc2Cl)[C@H]1O [Vancomycin hydrochloride from Streptomyces orientalis],percent Bodipy-positive cells,[1],14.1 ± 0.41%
CN[C@H](CC(C)C)C(=O)N[C@H]1C(=O)N[C@@H](CC(N)=O)C(=O)N[C@H]2C(=O)N[C@H]3C(=O)N[C@H](C(=O)N[C@H](C(=O)O)c4cc(O)cc(O)c4-c4cc3ccc4O)[C@H](O)c3ccc(c(Cl)c3)Oc3cc2cc(c3O[C@@H]2O[C@H](CO)[C@@H](O)[C@H](O)[C@H]2O[C@H]2C[C@](C)(N)[C@H](O)[C@H](C)O2)Oc2ccc(cc2Cl)[C@H]1O [Vancomycin hydrochloride],percent Bodipy-positive cells,,41.1 ± 5%
same,percent Bodipy-positive cells,[1],23.9 ± 3.7%
"CCCCCCCCC=CCC=CCC=CCCCC(=O)O [5(Z),8(Z),11(Z)-Eicosatrienoic Acid]",percent Bodipy-positive cells,[2],18.9 ± 5.3%
COc1cc2ncnc(Nc3ccc(F)c(Cl)c3)c2cc1NC(=O)C=CCN1CCCCC1,percent Bodipy-positive cells,[3],72 ± 13%
same,percent Bodipy-positive cells,[1],99.345 ± 0.036%
COc1ccc(-c2nc3cc(C4=NNC(=O)CC4C)ccc3[nH]2)cc1 (centres undefined) [Pimobendan],percent Bodipy-positive cells,[4],10.3 ± 4.2%
same,percent Bodipy-positive cells,[1],34.3 ± 3.1%
NCC(=O)Nc1ccc(-n2nc(C(F)(F)F)cc2-c2ccc3c(ccc4ccccc43)c2)cc1,percent Bodipy-positive cells,[4],86.4 ± 14%
same,percent Bodipy-positive cells,[1],50.2 ± 20%
CN1CCC[C@@H]1CCO[C@](C)(c1ccccc1)c1ccc(Cl)cc1.O=C(O)/C=C/C(=O)O [Clemastine fumarate],percent Bodipy-positive cells,[1],70.2 ± 9.5%
S=C1SCN(Cc2ccccc2)CN1Cc1ccccc1,percent Bodipy-positive cells,[1],37.2 ± 1.1%
CNCc1ccc(-c2[nH]c3cc(F)cc4c3c2CCNC4=O)cc1.O=P(O)(O)O [Rucaparib],percent Bodipy-positive cells,[1],99.09 ± 0.39%
CCc1cncnc1N1CCN(Cc2nc3ccc(C(F)(F)F)cc3[nH]2)CC1,percent Bodipy-positive cells,library stock concentration: 80 uM,10.8 ± 10%
same,percent Bodipy-positive cells,library stock concentration: 400 uM,11.1 ± 8.2%
same,percent Bodipy-positive cells,[3],6.11 ± 0.2%
same,percent Bodipy-positive cells,[4],8.01 ± 0.64%
same,percent Bodipy-positive cells,[1],30% and 23.3%
"CCS(=O)(=O)N(C)[C@H]1c2cc(C#N)ccc2OC(C)(C)[C@@H]1O [(-)-[3R,4S]-Chromanol 293B]",percent Bodipy-positive cells,[1],4.74 ± 0.67%
Cc1cc(C2CCCCC2)n(O)c(=O)c1 [Ciclopirox ethanolamine],percent Bodipy-positive cells,,52.7 ± 1.4%
same,percent Bodipy-positive cells,[4],26.1 ± 0.89%
same,percent Bodipy-positive cells,[1],39.7 ± 6.6%
Cc1cc(C2CCCCC2)n(O)c(=O)c1 [Ciclopirox olamine],percent Bodipy-positive cells,[6],11.3 ± 1.8%
same,percent Bodipy-positive cells,[1],30.1 ± 4.1%
Cc1cc(C2CCCCC2)n(O)c(=O)c1 [Ciclopirox],percent Bodipy-positive cells,[4],14.5 ± 3.9%
same,percent Bodipy-positive cells,[1],31.2 ± 0.41%
CC1=C(C(=O)OC(C)C)C(c2cccc([N+](=O)[O-])c2)C(C(=O)OC2CN(C(c3ccccc3)c3ccccc3)C2)=C(N)N1 (centres undefined) [Azelnidipine],percent Bodipy-positive cells,[4],3.252 ± 0.022%
same,percent Bodipy-positive cells,[1],46.3 ± 15%
COc1cc(C(=O)NS(=O)(=O)c2ccccc2C)ccc1Cc1cn(C)c2ccc(NC(=O)OC3CCCC3)cc12 [Zafirlukast],percent Bodipy-positive cells,[2],7.41 ± 1.7%
same,percent Bodipy-positive cells,[4],10.8 ± 3.8%
same,percent Bodipy-positive cells,library stock concentration: 3.5 mM,9.715 ± 0.0042%
same,percent Bodipy-positive cells,[1],11.4 ± 5.5%
COc1cc(C(=O)NS(=O)(=O)c2ccccc2C)ccc1Cc1cn(C)c2ccc(NC(=O)OC3CCCC3)cc12,percent Bodipy-positive cells,[1],5.96 ± 2.3%
CC(C)OC(=O)CCC/C=C\C[C@@H]1[C@@H](/C=C/[C@H](O)C2Cc3ccccc3C2)[C@@H](F)C[C@@H]1O [AL 8810 isopropyl ester],percent Bodipy-positive cells,[2],12.3 ± 0.5%
CN[C@H]1CN(c2ccc3c(=O)c(C(=O)O)cn(-c4nccs4)c3n2)C[C@@H]1OC [Voreloxin (SNS-595)],percent Bodipy-positive cells,[4],33 ± 1.2%
same,percent Bodipy-positive cells,[1],72.2 ± 1.5%
CCOc1cc([C@@H](CS(C)(=O)=O)N2C(=O)c3cccc(NC(C)=O)c3C2=O)ccc1OC,percent Bodipy-positive cells,[4],38.1 ± 3.7%
same,percent Bodipy-positive cells,[1],36.2 ± 2.2%
CCCCCCCCCCCCC/C=C/[C@@H](O)[C@H](CO)NC(C)=O [C2 Ceramide],percent Bodipy-positive cells,[2],27.8 ± 30%
CCCCCCCCCCCCC/C=C/[C@@H](O)[C@H](CO)NC(C)=O [C-2 Ceramide],percent Bodipy-positive cells,[2],12.1 ± 5%
O=C(O)c1cc(=O)c2ccccc2o1 [Chromocarb],percent Bodipy-positive cells,[4],9.91 ± 3%
same,percent Bodipy-positive cells,[1],32.1% and 26.9%
c1ccc(-c2cnc(Nc3ccc(OCCN4CCCC4)cc3)s2)cc1 [Flt-3 Inhibitor III],percent Bodipy-positive cells,[4],85.8 ± 0.47%
CCCCC[C@H](O)/C=C/C1=C(C/C=C\CCCC(=O)O)C(=O)CC1 [Prostaglandin B2],percent Bodipy-positive cells,[2],15.1% and 15.3%
NC(=S)c1ccc[n+]([C@@H]2O[C@@H](COP(=O)([O-])OP(=O)(O)OC[C@H]3O[C@@H](n4cnc5c(N)ncnc54)C(OP(=O)(O)O)[C@H]3O)C(O)C2O)c1 (some centres undefined) [Thio-NADP sodium],percent Bodipy-positive cells,[1],21.7 ± 4.3%
"NC(N)=NCCNS(=O)(=O)c1cccc2cnccc12 [HA 1004, Dihydrochloride]",percent Bodipy-positive cells,[4],8.43 ± 2.4%
NC(N)=NCCNS(=O)(=O)c1cccc2cnccc12,percent Bodipy-positive cells,library stock concentration: 17 mM,8.04 ± 2.6%
Cc1c(C(N)=O)cc([N+](=O)[O-])cc1[N+](=O)[O-] [Dinitolmide],percent Bodipy-positive cells,[4],10.5 ± 1.6%
same,percent Bodipy-positive cells,[1],23.9% and 27.7%
CCCCC[C@H](O)/C=C/[C@@H]1[C@H]2C[C@@H](CCCCC(=O)O)O[C@H]2C[C@H]1O [6.alpha.-Prostaglandin I1],percent Bodipy-positive cells,[2],16.3 ± 0.47%
CNC(=O)[C@H]1O[C@@H](n2cnc3c(NCc4cccc(I)c4)ncnc32)[C@H](O)[C@@H]1O,percent Bodipy-positive cells,[1],20.6% and 5.62%
C=C[C@H]1CN2CC[C@H]1C[C@@H]2[C@@H](O)c1ccnc2ccc(OC)cc12 [Quinidine hydrochloride monohydrate],percent Bodipy-positive cells,,51.9 ± 14%
same,percent Bodipy-positive cells,[1],68.1 ± 2.2%
C=C[C@H]1CN2CC[C@H]1C[C@@H]2[C@@H](O)c1ccnc2ccc(OC)cc12 [Quinidine gluconate],percent Bodipy-positive cells,[1],38.4 ± 7.6%
C=C[C@H]1CN2CC[C@H]1C[C@@H]2[C@@H](O)c1ccnc2ccc(OC)cc12 [Quinidine sulfate],percent Bodipy-positive cells,[1],58.7 ± 6.2%
C[C@]12CC[C@H]3C(=CCc4cc(O)ccc43)[C@@H]1CCC2=O [Equilin],percent Bodipy-positive cells,,15.9 ± 1.1%
same,percent Bodipy-positive cells,[6],4.87 ± 4.3%
same,percent Bodipy-positive cells,[1],18.4 ± 3.4%
C[C@]12C=CC(=O)C=C1CC[C@@H]1[C@@H]2[C@@H](O)C[C@@]2(C)[C@H]1CC[C@]2(O)C(=O)COP(=O)(O)O,percent Bodipy-positive cells,[1],32.4 ± 4%
N=C(N)N,percent Bodipy-positive cells,[1],29.81 ± 0.082%
N=C(N)N [Guanidine HCl],percent Bodipy-positive cells,[4],12.4 ± 0.069%
same,percent Bodipy-positive cells,[1],25.2 ± 6.8%
CC(C)OC(=O)CCC/C=C\C[C@@H]1[C@@H](/C=C/[C@@H](O)CCc2ccccc2)[C@H](O)C[C@@H]1O [17-phenyl trinor Prostaglandin F2.alpha. isopropyl ester],percent Bodipy-positive cells,[2],20.6 ± 3.3%
N#Cc1ccc2[nH]cc(CCCCN3CCN(c4ccc5oc(C(N)=O)cc5c4)CC3)c2c1 [Vilazodone HCl],percent Bodipy-positive cells,[4],64.1 ± 4.5%
CCCCC/C=C\C/C=C\CCCCCCCC(=O)OCC(COC(=O)CCCCCCCCCCCCCCC)OC(=O)CCCCCCC/C=C\CCCCCCCC (racemic) [1-Palmitoyl-2-oleoyl-3-linoleoyl-rac-glycerol],percent Bodipy-positive cells,[2],5.36 ± 1.3%
